{"source": "paper PMC7819943", "about": "“Rice protein-binding microarrays: a tool to detect cis-acting elements near promoter regions in rice”", "note": "Some of the results follow."}
{"biological_target": "T1, OsSMF1 (Oryza sativa, UniProt Q6ZLB0 1-436)", "T1 sequence": "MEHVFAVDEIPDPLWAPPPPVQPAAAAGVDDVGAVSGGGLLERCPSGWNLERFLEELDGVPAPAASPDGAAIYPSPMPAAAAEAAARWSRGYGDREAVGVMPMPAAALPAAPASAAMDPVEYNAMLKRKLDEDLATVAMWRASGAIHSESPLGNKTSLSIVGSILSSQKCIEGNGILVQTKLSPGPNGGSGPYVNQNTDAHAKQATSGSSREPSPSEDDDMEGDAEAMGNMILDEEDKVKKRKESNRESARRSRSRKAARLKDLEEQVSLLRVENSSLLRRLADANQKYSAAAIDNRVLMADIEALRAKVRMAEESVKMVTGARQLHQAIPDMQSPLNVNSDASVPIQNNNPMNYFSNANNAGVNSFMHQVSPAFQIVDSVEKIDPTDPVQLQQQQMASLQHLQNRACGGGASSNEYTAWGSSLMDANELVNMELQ", "test": "protein-binding microarray (RPBM); PBS, 2% BSA, 51.3 ng/ul salmon testes DNA, 50 uM zinc acetate, 200 nM TF, 25 C, 1 h; high values mean tight binding", "settings": "protein: recombinant; tags: N-terminal polyhistidine and DsRed monomer fusion (pET32a); chain copies: 2; label: CyDye5-dUTP incorporated in the synthesized complementary strand; 3' TTTTT single-stranded linker to array surface; dsDNA, one strand shown", "how_it_was_run": "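Binding signal is defined as the fluorescence intensity of each feature in arbitrary units, read on an Axon 4000B scanner. Transcription factors with N-terminal polyhistidine and DsRed fusions came from E. coli BL21-CodonPlus and were purified on Ni–NTA. They were incubated at 200 nM for 1 h at 25 °C on a custom Agilent array that had been made double-stranded with Cy5-dUTP, with 50 µM zinc acetate present, and the array was washed.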"}
{"sequence": "TAAGTCACAAGTGTTCCCACGTGTAGGCATGTTTCACGCTCGGAGTCACCTAGTGCAG", "binding signal": "5720 fluorescence intensity (a.u.)"}
{"sequence": "CGCCAAATCGTGTGGCGCTGAACTTAGACACCTCAGCGTCCGGAGTCACCTAGTGCAG", "binding signal": "21000 fluorescence intensity (a.u.)"}
{"sequence": "TCTCGCCTCGTCGTCACCACGTCGGCTTCAGCGACATTTCCGGAGTCACCTAGTGCAG", "binding signal": "7340 fluorescence intensity (a.u.)"}
{"sequence": "ATAGATAATAGAAGAACAAAATGACCAGTTGATAAACCCTCGGAGTCACCTAGTGCAG", "binding signal": "3250 fluorescence intensity (a.u.)"}
{"sequence": "CGTGCCGCGTCCGCGTGCGCTCGCAGGACGTGTCCAGGTGCGGAGTCACCTAGTGCAG", "binding signal": "6010 fluorescence intensity (a.u.)"}
{"sequence": "CAAGTCGACTAGAAATTGTAAAATCAAATTAAAATTCTTTCGGAGTCACCTAGTGCAG", "binding signal": "3730 fluorescence intensity (a.u.)"}
{"sequence": "GAAAACGATAGTTTGGTGACGTAAACCTGCGGCTGAGGCCCGGAGTCACCTAGTGCAG", "binding signal": "5050 fluorescence intensity (a.u.)"}
{"sequence": "ATTGGAGTTAGTGGTGGGCTATACTATTAGACGTCCATTGCGGAGTCACCTAGTGCAG", "binding signal": "3270 fluorescence intensity (a.u.)"}
{"sequence": "CTCTCGTCGGTTACATTACAATTTACAGGAGCAAGCAGCTCGGAGTCACCTAGTGCAG", "binding signal": "16300 fluorescence intensity (a.u.)"}
{"sequence": "AAAGATGAGTTGGCCGATTCAGACACCTCCTATGTCCATACGGAGTCACCTAGTGCAG", "binding signal": "4690 fluorescence intensity (a.u.)"}
{"sequence": "ATATGGATGATGGTTTTGTTGATGTGGCATCCTAGTCAGACGGAGTCACCTAGTGCAG", "binding signal": "14000 fluorescence intensity (a.u.)"}
{"sequence": "TTGAATATGAGTGAGTAGGCAATAGGCACTTTTGTTTTGGCGGAGTCACCTAGTGCAG", "binding signal": "4220 fluorescence intensity (a.u.)"}
{"sequence": "TTTGATACTACTGCCTGTTTTACAGATCACCAACTTCCTGCGGAGTCACCTAGTGCAG", "binding signal": "4670 fluorescence intensity (a.u.)"}
{"sequence": "GCAGTATTTGTCACTTTTCCTGACCGACCACTTGCGTTTGCGGAGTCACCTAGTGCAG", "binding signal": "3530 fluorescence intensity (a.u.)"}
{"sequence": "GAAACGACTGCATCCGTCCACGCGTGCGGCTCGTGACGACCGGAGTCACCTAGTGCAG", "binding signal": "5250 fluorescence intensity (a.u.)"}
{"sequence": "CTGAGTAAAATATATGTACTTTCTTTTGCCGAATTACCCTCGGAGTCACCTAGTGCAG", "binding signal": "3220 fluorescence intensity (a.u.)"}
{"sequence": "ACCTCACGCTCGACGGCAACGCCACCGTCATGCCAGATGGCGGAGTCACCTAGTGCAG", "binding signal": "5190 fluorescence intensity (a.u.)"}
{"sequence": "TGCAGTATTGGTGAGTTGTTCTCTTTAACGTCTGAGCTGACGGAGTCACCTAGTGCAG", "binding signal": "4760 fluorescence intensity (a.u.)"}
{"sequence": "TCTCTCCCTTCTTCTTCCGCCACCTCCCTCTCTCTCCCTTCGGAGTCACCTAGTGCAG", "binding signal": "4090 fluorescence intensity (a.u.)"}
{"sequence": "GCTGTTCATTCTGCTGTGTGTTTCGTGGCACAGCACATTTCGGAGTCACCTAGTGCAG", "binding signal": "6090 fluorescence intensity (a.u.)"}
{"sequence": "GAGCCTGCTGTCTTGTTACTGTTAATGATGTTTTAGTTTACGGAGTCACCTAGTGCAG", "binding signal": "3320 fluorescence intensity (a.u.)"}
{"sequence": "GTCACCTAAGTGCCATGTCAACGCCACGTGGAAAGAAGACCGGAGTCACCTAGTGCAG", "binding signal": "25100 fluorescence intensity (a.u.)"}
{"sequence": "TCAAAGATGACCTTATATCGGTGACGAGTCATCCCTGGTACGGAGTCACCTAGTGCAG", "binding signal": "5290 fluorescence intensity (a.u.)"}
{"sequence": "ATTACAGCCATATGCTCAGCGCTGGCATTCATGTATTTTGCGGAGTCACCTAGTGCAG", "binding signal": "4580 fluorescence intensity (a.u.)"}
{"sequence": "ATGGGCCTATCTTCTACTGACAGGTGGGACCGCCCGTGATCGGAGTCACCTAGTGCAG", "binding signal": "4890 fluorescence intensity (a.u.)"}
{"sequence": "GACGGGTTTGTTATTGTGCTAGTGCTAAGGTCAATTGAGTCGGAGTCACCTAGTGCAG", "binding signal": "3160 fluorescence intensity (a.u.)"}
{"sequence": "ACAACACATCATTGACACACAACTATACCAACGTTCTATCCGGAGTCACCTAGTGCAG", "binding signal": "4820 fluorescence intensity (a.u.)"}
{"sequence": "ATATATATATATATATACAGATATACACACACACACACCGCGGAGTCACCTAGTGCAG", "binding signal": "3320 fluorescence intensity (a.u.)"}
{"sequence": "TCTCCTAACTTCTCTCCTCCACCTCATCATCTAATCTTATCGGAGTCACCTAGTGCAG", "binding signal": "4860 fluorescence intensity (a.u.)"}
{"sequence": "CAACAGCAGCAGCTACAACGCGGCATCCATGGCCGCCGCGCGGAGTCACCTAGTGCAG", "binding signal": "53300 fluorescence intensity (a.u.)"}
{"sequence": "CAAGTTGTGACAGTTATACAAGTGTGGTGGATAAATTGTTCGGAGTCACCTAGTGCAG", "binding signal": "3240 fluorescence intensity (a.u.)"}
{"sequence": "TCTAATAGCAATAGATGACTGGTGGTGACGCGTAACGTAGCGGAGTCACCTAGTGCAG", "binding signal": "5550 fluorescence intensity (a.u.)"}
{"sequence": "ATAAAATCCACCGTGTCAATCCCCACGCCACACCAGAGGCCGGAGTCACCTAGTGCAG", "binding signal": "5640 fluorescence intensity (a.u.)"}
{"sequence": "AGACAAACATTGCGTAATGCCTCGGACCTAATATAAAAGTCGGAGTCACCTAGTGCAG", "binding signal": "15800 fluorescence intensity (a.u.)"}
{"sequence": "CCATCTCATCATGCATAGCAGTTATCCATCTATTGCAATCCGGAGTCACCTAGTGCAG", "binding signal": "3780 fluorescence intensity (a.u.)"}
{"sequence": "ATTCAAATGCCACCTAAGCGTCACGTCAACACCACAGATTCGGAGTCACCTAGTGCAG", "binding signal": "10800 fluorescence intensity (a.u.)"}
{"sequence": "GTGCCTGCTCGATCGAGTCGTGGCGGCGGCGGAGTCAACTCGGAGTCACCTAGTGCAG", "binding signal": "3370 fluorescence intensity (a.u.)"}
{"sequence": "CGCTGCTGCCGTCACAGAAGGTGCTGACATGGCCTGGGGTCGGAGTCACCTAGTGCAG", "binding signal": "7520 fluorescence intensity (a.u.)"}
{"sequence": "GAGAATAAACACGTGGCCAACTAACTTCATTACACAGTTTCGGAGTCACCTAGTGCAG", "binding signal": "8420 fluorescence intensity (a.u.)"}
{"sequence": "CATCCATCCCACCACTCACCCATCCCTCCCAGTATAAGCCCGGAGTCACCTAGTGCAG", "binding signal": "3570 fluorescence intensity (a.u.)"}
{"sequence": "TAACATTAGACTATATGAAACAACTTTCGGTCAATATCTACGGAGTCACCTAGTGCAG", "binding signal": "3380 fluorescence intensity (a.u.)"}
{"sequence": "CGGAGGGGTTCATCTCGGCGAAGACGTGGTCGGCCGTCCGCGGAGTCACCTAGTGCAG", "binding signal": "4120 fluorescence intensity (a.u.)"}
{"sequence": "AAAAGAAAAGAAAATAACACGTCATGTCCATGTAGCATATCGGAGTCACCTAGTGCAG", "binding signal": "20200 fluorescence intensity (a.u.)"}
{"sequence": "AGGTACCTCCACGTACATATTTGCCCATGAGCTGGTACCGCGGAGTCACCTAGTGCAG", "binding signal": "4760 fluorescence intensity (a.u.)"}
{"sequence": "TGGGAGTCCCATGTGTTGCGTATTACTCCTACTTGTGTGCCGGAGTCACCTAGTGCAG", "binding signal": "3210 fluorescence intensity (a.u.)"}
{"sequence": "CACATTTCATCTTATTATCCAATGCGCTGCAATTTCATGCCGGAGTCACCTAGTGCAG", "binding signal": "29100 fluorescence intensity (a.u.)"}
{"sequence": "ATTATGCCCCTTATTACATTTCAGCCTACAGCGATCTACCCGGAGTCACCTAGTGCAG", "binding signal": "3280 fluorescence intensity (a.u.)"}
{"sequence": "TGAGCTTCACGTAGATCTCATCGTCGTTGTCCACCACGTCCGGAGTCACCTAGTGCAG", "binding signal": "3750 fluorescence intensity (a.u.)"}
{"sequence": "CGTCTCATGCACGGGGTGAAAGCACGATGACGAGCCACGGCGGAGTCACCTAGTGCAG", "binding signal": "4110 fluorescence intensity (a.u.)"}
{"sequence": "GATGGAGAGGAGAGAGTAGTGAGTATGACATGTAGGGCTGCGGAGTCACCTAGTGCAG", "binding signal": "5390 fluorescence intensity (a.u.)"}
{"sequence": "GATGATGACAAACATGTTAGCGCCGTCCCTCTAGCCTCCTCGGAGTCACCTAGTGCAG", "binding signal": "3520 fluorescence intensity (a.u.)"}
{"sequence": "AAATGTCAAGTTGCATCACATCGTCGTCATTGACACTATTCGGAGTCACCTAGTGCAG", "binding signal": "5790 fluorescence intensity (a.u.)"}
{"sequence": "AACACCGCCGTCTCCGTGGCCACCGCCGCCGCCGCCGCTCCGGAGTCACCTAGTGCAG", "binding signal": "3840 fluorescence intensity (a.u.)"}
{"sequence": "TTTATTACACAACGCAACTGGCCAGACTTTAGCGGGTCATCGGAGTCACCTAGTGCAG", "binding signal": "46000 fluorescence intensity (a.u.)"}
